Structures can show the parent of a compound that is named as a salt. The list shows a part of the results. The calls rarely recur for the same compound in another form.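 Kinases, fused to nanoluciferase, were expressed in K562 cells; luminescence was measured every 4 h from 2 to 18 h as percent of control (DMSO = 100%, positive control = 0%). A time point is decreased if signal falls significantly (2 sigma). Hits were called by the authors by a rule that is not shown; the count of time points alone does not decide it.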
Tests used:
Test in all cases: number of time points (of 5) at which kinase-Nluc abundance scored as decreased, DMSO-normalised (count); higher = more persistent destabilization
Conditions in all cases: K562; 2-18 h
EGFR_L861Q = EGFR_L861Q (UniProt P00533)
EGFR_T790M = EGFR_T790M (UniProt P00533)
EPHA2 = EPHA2 (UniProt P29317)
ERBB3 = ERBB3 (UniProt P21860)
[1] = biological target: ERBB4_R711C (clone: ERBB4_mut) (UniProt Q15303)
ERN1 = ERN1 (UniProt O75460)
FGFR1 = FGFR1 (UniProt P11362)
FGFR2 = FGFR2 (UniProt P21802)
FGFR3 = FGFR3 (UniProt P22607)
FGR = FGR (UniProt P09769)
FLT3 = FLT3 (UniProt P36888)
FYN = FYN (UniProt P06241)
GSK3A = GSK3A (UniProt P49840)
HER2 = HER2 (UniProt P04626)
INSRR = INSRR (UniProt P14616)
IRAK3 = IRAK3 (UniProt Q9Y616)
JAK1 = JAK1 (UniProt P23458)
LCK = LCK (UniProt P06239)
LIMK1 = LIMK1 (UniProt P53667)
LIMK2 = LIMK2 (UniProt P53671)

Chains of the proteins cited; added tags and fusions are not shown. Lines headed by an entry give the natural chain unless they say otherwise; changes in a name come on top.
UniProt P29317, whole entry: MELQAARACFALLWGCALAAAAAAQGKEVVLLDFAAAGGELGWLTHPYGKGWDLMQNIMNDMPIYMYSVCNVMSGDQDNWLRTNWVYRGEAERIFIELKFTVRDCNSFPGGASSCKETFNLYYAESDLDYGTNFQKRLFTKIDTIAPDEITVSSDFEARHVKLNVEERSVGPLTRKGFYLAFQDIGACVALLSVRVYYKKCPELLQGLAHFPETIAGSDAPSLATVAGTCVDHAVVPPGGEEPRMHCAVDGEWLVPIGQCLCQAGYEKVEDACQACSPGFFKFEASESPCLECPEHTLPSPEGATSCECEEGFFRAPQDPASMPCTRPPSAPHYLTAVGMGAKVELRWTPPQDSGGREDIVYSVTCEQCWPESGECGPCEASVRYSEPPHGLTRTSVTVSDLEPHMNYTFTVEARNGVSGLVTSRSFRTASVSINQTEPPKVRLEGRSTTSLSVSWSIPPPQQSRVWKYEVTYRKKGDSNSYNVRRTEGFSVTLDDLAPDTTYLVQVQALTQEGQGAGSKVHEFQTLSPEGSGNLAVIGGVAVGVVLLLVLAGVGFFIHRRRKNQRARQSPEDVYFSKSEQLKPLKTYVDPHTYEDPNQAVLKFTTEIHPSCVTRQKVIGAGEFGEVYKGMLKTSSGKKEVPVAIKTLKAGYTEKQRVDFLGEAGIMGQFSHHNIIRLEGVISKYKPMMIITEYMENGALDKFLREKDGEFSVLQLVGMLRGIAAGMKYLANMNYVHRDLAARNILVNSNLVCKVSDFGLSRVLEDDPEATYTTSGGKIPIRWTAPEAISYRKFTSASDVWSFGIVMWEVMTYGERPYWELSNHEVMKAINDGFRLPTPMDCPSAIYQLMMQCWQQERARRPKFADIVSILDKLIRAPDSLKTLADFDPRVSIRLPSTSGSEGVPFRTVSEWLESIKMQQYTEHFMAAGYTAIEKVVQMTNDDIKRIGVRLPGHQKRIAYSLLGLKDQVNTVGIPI
UniProt O75460: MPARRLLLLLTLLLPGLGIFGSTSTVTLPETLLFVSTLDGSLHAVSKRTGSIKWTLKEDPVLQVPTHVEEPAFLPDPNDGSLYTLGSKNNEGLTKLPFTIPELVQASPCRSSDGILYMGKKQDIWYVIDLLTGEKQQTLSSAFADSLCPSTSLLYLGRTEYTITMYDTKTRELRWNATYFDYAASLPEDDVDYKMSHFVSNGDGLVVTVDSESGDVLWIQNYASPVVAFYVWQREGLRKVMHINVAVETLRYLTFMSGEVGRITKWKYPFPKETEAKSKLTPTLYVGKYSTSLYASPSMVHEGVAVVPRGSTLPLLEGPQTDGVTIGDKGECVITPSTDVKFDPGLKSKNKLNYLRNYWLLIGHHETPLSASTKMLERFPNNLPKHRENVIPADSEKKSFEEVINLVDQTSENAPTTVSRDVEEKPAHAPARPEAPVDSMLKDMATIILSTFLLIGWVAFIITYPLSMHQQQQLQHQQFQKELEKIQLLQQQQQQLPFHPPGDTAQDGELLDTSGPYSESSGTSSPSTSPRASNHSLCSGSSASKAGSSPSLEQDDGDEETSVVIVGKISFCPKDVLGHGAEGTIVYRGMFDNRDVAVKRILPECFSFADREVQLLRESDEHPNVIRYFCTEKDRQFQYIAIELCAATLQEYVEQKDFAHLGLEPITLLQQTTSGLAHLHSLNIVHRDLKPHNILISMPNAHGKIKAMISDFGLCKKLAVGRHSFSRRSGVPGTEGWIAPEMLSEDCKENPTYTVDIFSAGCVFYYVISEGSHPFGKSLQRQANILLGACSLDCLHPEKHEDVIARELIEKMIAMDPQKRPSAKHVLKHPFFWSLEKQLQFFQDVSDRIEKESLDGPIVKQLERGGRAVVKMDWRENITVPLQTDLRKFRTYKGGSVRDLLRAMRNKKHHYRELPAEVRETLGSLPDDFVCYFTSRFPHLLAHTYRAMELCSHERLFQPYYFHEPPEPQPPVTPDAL
UniProt P22607, whole entry, looked up: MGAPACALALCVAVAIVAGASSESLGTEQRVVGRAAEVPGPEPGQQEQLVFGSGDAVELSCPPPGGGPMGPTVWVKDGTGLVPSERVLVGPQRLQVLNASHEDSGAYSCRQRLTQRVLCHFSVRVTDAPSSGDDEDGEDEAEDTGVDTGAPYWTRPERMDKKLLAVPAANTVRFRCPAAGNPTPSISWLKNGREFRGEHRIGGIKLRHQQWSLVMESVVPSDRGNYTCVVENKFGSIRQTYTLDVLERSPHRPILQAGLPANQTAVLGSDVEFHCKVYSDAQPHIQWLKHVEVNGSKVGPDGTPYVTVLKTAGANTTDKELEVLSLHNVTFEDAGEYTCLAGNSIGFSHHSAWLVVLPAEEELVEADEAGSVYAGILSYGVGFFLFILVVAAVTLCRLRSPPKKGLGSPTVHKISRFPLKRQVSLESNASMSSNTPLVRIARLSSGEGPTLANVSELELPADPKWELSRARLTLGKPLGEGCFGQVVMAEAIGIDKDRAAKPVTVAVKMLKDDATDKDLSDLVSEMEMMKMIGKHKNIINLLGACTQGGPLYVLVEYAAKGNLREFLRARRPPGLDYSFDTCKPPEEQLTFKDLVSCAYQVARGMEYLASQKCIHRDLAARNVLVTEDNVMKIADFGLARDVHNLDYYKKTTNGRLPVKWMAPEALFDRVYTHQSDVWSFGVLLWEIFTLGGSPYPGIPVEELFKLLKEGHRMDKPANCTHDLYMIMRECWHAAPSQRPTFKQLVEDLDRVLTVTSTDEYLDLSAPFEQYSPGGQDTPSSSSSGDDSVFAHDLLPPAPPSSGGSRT
UniProt P36888, whole entry: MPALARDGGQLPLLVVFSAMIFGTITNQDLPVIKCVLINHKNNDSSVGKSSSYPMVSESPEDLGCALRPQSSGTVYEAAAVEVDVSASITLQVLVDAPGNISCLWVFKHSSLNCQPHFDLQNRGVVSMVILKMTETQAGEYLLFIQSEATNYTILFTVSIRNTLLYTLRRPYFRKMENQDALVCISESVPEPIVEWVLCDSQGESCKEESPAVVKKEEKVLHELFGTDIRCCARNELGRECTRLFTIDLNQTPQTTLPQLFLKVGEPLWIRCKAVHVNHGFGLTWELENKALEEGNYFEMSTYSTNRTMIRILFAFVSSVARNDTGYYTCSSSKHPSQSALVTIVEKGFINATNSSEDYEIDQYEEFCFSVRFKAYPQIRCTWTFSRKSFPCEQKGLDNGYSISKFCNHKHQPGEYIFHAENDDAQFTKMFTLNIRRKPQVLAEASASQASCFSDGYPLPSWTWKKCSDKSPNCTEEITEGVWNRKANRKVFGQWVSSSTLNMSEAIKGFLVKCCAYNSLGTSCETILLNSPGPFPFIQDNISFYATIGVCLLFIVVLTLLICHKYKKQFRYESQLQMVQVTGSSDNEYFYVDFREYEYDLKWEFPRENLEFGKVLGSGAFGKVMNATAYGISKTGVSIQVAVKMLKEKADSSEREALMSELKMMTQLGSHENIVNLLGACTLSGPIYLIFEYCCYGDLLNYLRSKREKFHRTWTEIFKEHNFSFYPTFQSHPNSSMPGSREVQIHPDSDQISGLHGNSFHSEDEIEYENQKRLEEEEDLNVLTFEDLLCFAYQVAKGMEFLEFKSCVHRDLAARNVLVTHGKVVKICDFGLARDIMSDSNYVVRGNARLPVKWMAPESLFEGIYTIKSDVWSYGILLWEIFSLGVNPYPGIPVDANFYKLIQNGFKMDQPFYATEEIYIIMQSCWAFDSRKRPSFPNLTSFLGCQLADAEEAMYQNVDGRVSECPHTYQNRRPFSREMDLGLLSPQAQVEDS
UniProt P06241, whole entry, looked up: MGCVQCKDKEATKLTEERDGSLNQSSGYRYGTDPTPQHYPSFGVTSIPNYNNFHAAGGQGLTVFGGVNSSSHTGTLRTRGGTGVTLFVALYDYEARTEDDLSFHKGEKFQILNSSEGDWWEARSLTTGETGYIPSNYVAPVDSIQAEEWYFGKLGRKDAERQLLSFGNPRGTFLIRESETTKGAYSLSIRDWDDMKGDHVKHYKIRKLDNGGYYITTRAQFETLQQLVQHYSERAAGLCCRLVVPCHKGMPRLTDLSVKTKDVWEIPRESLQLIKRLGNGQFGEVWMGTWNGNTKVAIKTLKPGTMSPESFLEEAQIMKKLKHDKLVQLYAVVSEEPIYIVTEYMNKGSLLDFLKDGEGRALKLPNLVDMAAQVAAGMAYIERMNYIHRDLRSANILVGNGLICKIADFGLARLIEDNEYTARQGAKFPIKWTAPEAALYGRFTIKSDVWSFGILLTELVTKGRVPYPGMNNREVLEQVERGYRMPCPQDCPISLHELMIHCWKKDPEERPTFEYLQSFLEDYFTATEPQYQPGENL
UniProt Q9Y616: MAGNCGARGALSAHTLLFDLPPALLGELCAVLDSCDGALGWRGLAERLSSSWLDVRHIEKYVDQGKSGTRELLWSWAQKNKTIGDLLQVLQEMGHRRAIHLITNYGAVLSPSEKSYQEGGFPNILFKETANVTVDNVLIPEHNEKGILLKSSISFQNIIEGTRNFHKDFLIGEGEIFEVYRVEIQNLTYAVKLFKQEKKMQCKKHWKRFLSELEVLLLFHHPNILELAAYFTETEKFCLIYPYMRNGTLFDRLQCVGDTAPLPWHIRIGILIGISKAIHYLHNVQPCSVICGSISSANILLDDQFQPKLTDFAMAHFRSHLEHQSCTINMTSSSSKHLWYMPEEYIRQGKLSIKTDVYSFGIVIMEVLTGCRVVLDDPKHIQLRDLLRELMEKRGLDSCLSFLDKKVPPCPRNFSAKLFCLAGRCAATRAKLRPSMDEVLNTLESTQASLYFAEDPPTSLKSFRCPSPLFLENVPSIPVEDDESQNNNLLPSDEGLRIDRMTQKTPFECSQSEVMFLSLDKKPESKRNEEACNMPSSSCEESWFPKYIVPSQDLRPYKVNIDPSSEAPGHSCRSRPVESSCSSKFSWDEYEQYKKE
UniProt P23458: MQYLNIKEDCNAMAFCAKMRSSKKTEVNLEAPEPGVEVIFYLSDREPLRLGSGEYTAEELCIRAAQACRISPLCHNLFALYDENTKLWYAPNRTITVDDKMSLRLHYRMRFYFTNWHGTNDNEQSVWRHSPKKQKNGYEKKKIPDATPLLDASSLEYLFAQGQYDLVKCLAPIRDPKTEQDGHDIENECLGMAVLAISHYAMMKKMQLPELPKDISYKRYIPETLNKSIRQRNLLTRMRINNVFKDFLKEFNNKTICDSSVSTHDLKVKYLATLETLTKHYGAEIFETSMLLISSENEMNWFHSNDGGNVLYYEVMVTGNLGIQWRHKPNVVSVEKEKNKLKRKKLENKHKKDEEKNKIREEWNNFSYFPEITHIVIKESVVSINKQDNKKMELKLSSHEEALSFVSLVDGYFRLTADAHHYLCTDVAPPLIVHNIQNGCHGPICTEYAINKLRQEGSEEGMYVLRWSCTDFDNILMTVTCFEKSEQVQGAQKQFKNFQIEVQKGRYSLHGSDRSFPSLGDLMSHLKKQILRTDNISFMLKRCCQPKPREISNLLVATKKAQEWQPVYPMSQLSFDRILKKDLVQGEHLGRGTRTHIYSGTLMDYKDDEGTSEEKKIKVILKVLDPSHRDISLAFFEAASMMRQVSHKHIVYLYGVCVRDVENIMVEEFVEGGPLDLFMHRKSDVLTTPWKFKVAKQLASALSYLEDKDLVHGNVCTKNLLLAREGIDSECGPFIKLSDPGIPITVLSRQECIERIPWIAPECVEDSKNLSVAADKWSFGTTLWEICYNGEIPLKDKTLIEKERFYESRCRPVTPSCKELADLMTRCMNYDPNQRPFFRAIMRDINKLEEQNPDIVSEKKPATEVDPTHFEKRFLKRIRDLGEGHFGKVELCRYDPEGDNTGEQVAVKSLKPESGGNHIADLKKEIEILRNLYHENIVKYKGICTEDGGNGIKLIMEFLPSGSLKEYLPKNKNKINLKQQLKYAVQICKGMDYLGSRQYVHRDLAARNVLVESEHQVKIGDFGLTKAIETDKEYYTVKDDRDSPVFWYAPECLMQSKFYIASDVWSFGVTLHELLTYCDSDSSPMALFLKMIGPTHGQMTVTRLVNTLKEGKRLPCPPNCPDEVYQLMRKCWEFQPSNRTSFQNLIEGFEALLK
UniProt P06239: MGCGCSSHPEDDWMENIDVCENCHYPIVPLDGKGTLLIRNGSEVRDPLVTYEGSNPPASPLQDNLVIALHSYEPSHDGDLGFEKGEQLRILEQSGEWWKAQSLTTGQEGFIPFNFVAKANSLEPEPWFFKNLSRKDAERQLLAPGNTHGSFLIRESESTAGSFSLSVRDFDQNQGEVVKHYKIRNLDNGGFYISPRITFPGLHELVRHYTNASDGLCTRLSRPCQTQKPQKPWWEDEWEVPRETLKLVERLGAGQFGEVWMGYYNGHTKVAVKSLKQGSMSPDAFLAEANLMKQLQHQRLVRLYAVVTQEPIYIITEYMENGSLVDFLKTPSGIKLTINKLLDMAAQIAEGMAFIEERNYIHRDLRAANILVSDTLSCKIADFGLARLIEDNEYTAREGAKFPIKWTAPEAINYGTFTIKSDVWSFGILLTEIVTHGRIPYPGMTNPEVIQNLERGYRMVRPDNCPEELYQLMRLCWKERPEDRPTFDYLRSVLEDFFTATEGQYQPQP

Measured: number of time points

CN(C)Cc1ccc(-c2cnn3c(-c4cccc(NC(=O)c5cccc(C(F)(F)F)c5)c4)ccnc23)cc1 (2.5 µM)
5: HER2
0: EGFR_L861Q | EGFR_T790M | EPHA2 | ERBB3 | [1] | ERN1 | FGFR1 | FGFR2 | FGFR3 | FGR | FLT3 | FYN | GSK3A | INSRR | IRAK3 | JAK1 | LCK | LIMK1 | LIMK2

CN1CCN(c2ccc(Nc3cc(-c4cccc(-n5ccc6cc(C7CC7)cc(F)c6c5=O)c4CO)cn(C)c3=O)nc2)CC1 (2.5 µM)
0: EGFR_L861Q | EGFR_T790M | EPHA2 | ERBB3 | [1] | ERN1 | FGFR1 | FGFR2 | FGFR3 | FGR | FLT3 | FYN | GSK3A | HER2 | INSRR | IRAK3 | JAK1 | LCK | LIMK1 | LIMK2

CC(C)(/C=C(\C#N)C(=O)N1CCC[C@@H](n2nc(-c3ccc(Oc4ccccc4)cc3F)c3c(N)ncnc32)C1)N1CCN(C2COC2)CC1 (2.5 µM)
0: EGFR_L861Q | EGFR_T790M | EPHA2 | ERBB3 | [1] | ERN1 | FGFR1 | FGFR2 | FGFR3 | FGR | FLT3 | FYN | GSK3A | HER2 | INSRR | IRAK3 | JAK1 | LCK | LIMK1 | LIMK2

Cc1cc(F)c(C(=O)Nc2cccc(-c3nncn3C(C)C)n2)cc1-n1cnc(C2CC2)c1 [Selonsertib] (10 µM)
0: EGFR_L861Q | EGFR_T790M | EPHA2 | ERBB3 | [1] | ERN1 | FGFR1 | FGFR2 | FGFR3 | FGR | FLT3 | FYN | GSK3A | HER2 | INSRR | IRAK3 | JAK1 | LCK | LIMK1 | LIMK2

Cc1cccc([C@@H](CO)NC(=O)[C@@H](C)N2Cc3ccc(-c4nc(NC5CCOCC5)ncc4Cl)cc3C2=O)c1 [ERK1/2 inhibitor 1] (10 µM)
1: [1]
2: ERBB3
0: EGFR_L861Q | EGFR_T790M | EPHA2 | ERN1 | FGFR1 | FGFR2 | FGFR3 | FGR | FLT3 | FYN | GSK3A | HER2 | INSRR | IRAK3 | JAK1 | LCK | LIMK1 | LIMK2

COc1ccc(NC(=O)N2CCN(c3nc(N)nc4c3cnn4C)[C@@H](C)C2)c(C)c1 (10 µM)
0: EGFR_L861Q | EGFR_T790M | EPHA2 | ERBB3 | [1] | ERN1 | FGFR1 | FGFR2 | FGFR3 | FGR | FLT3 | FYN | GSK3A | HER2 | INSRR | IRAK3 | JAK1 | LCK | LIMK1 | LIMK2

Cc1ncc(-c2ccnc(Nc3ccc(S(C)(=O)=O)cc3)n2)n1C(C)C (2.5 µM)
3: [1] | FLT3
0: EGFR_T790M | EPHA2 | ERBB3 | ERN1 | FGFR1 | FGFR3 | FGR | FYN | INSRR | LCK | LIMK1 | LIMK2
1: EGFR_L861Q | FGFR2 | GSK3A
2: HER2 | IRAK3 | JAK1

CC[C@H](CO)Nc1nc(NCc2ccccc2)c2ncn(C(C)C)c2n1 [Seliciclib] (10 µM)
0: EGFR_L861Q | EGFR_T790M | EPHA2 | ERBB3 | [1] | ERN1 | FGFR1 | FGFR2 | FGFR3 | FGR | FLT3 | FYN | GSK3A | HER2 | INSRR | IRAK3 | JAK1 | LCK | LIMK1 | LIMK2

O=C1NC(=NCc2cccs2)S/C1=C\c1ccc2ncccc2c1 (10 µM)
0: EGFR_L861Q | EGFR_T790M | EPHA2 | ERBB3 | [1] | ERN1 | FGFR1 | FGFR2 | FGFR3 | FGR | FLT3 | FYN | GSK3A | HER2 | INSRR | IRAK3 | JAK1 | LCK | LIMK1 | LIMK2

COc1ccc(COc2ccc(Cc3cnc(N)nc3N)cc2OC)cc1 (10 µM)
0: EGFR_L861Q | EGFR_T790M | EPHA2 | ERBB3 | [1] | ERN1 | FGFR1 | FGFR2 | FGFR3 | FGR | FLT3 | FYN | GSK3A | HER2 | INSRR | IRAK3 | JAK1 | LCK | LIMK1 | LIMK2

CNC(=O)c1cccc(-c2ccc3c(N4CCOC[C@@H]4C)nc(N4CCOC[C@@H]4C)nc3n2)c1 [Vistusertib] (2.5 µM)
3: ERBB3 | FYN | HER2 | IRAK3
5: FGFR1
0: EGFR_T790M | EPHA2 | ERN1 | FGR | GSK3A | LCK
4: EGFR_L861Q | [1] | FGFR2 | FGFR3 | FLT3 | INSRR | JAK1 | LIMK1 | LIMK2

NC(=O)c1ccc(-c2nc(-c3ccccn3)c(-c3ccc4c(c3)OCO4)[nH]2)cc1 (10 µM)
0: EGFR_L861Q | EGFR_T790M | EPHA2 | ERBB3 | [1] | ERN1 | FGFR1 | FGFR2 | FGFR3 | FGR | FLT3 | FYN | GSK3A | HER2 | INSRR | IRAK3 | JAK1 | LCK | LIMK1 | LIMK2

CC(C)c1cnn2c(NCc3ccccc3)cc(NC[C@H]3CCNC[C@@H]3O)nc12 [Samuraciclib (hydrochloride)] (10 µM)
0: EGFR_L861Q | EGFR_T790M | EPHA2 | ERBB3 | [1] | ERN1 | FGFR1 | FGFR2 | FGFR3 | FGR | FLT3 | FYN | GSK3A | HER2 | INSRR | IRAK3 | JAK1 | LCK | LIMK1 | LIMK2

Brc1c(Br)c(Br)c2n[nH]nc2c1Br (10 µM)
0: EGFR_L861Q | EGFR_T790M | EPHA2 | ERBB3 | [1] | ERN1 | FGFR1 | FGFR2 | FGFR3 | FGR | FLT3 | FYN | GSK3A | HER2 | INSRR | IRAK3 | JAK1 | LCK | LIMK1 | LIMK2

Cn1nc(C(C)(C)C)cc1NC(=O)Nc1ccc(Oc2ccncc2)cc1 (10 µM)
1: FLT3 | LIMK1
0: EGFR_T790M | EPHA2 | ERN1 | FGFR1 | FGFR2 | FGFR3 | FGR | FYN | GSK3A | HER2 | LCK | LIMK2
3: EGFR_L861Q | ERBB3 | [1] | IRAK3
2: INSRR | JAK1

CCOc1cc2ncc(-c3cc(N)nc(F)c3)n2cc1S(=O)(=O)C(C)(C)C (10 µM)
0: EGFR_L861Q | EGFR_T790M | EPHA2 | ERBB3 | [1] | ERN1 | FGFR1 | FGFR2 | FGFR3 | FGR | FLT3 | FYN | GSK3A | HER2 | INSRR | IRAK3 | JAK1 | LCK | LIMK1 | LIMK2

NC(=O)c1ccc2nc(-c3ccc(Oc4ccc(Cl)cc4)cc3)[nH]c2c1 (10 µM)
0: EGFR_L861Q | EGFR_T790M | EPHA2 | ERBB3 | [1] | ERN1 | FGFR1 | FGFR2 | FGFR3 | FGR | FLT3 | FYN | GSK3A | HER2 | INSRR | IRAK3 | JAK1 | LCK | LIMK1 | LIMK2

Cc1cc(CS(=O)(=O)c2ccccc2)cc(OCc2ccc(CN3CCC[C@@H]3CO)cc2)c1 [PF-543 (Citrate)] (10 µM)
0: EGFR_L861Q | EGFR_T790M | EPHA2 | ERBB3 | [1] | ERN1 | FGFR1 | FGFR2 | FGFR3 | FGR | FLT3 | FYN | GSK3A | HER2 | INSRR | IRAK3 | JAK1 | LCK | LIMK1 | LIMK2

COc1cc(N2CCC(N)CC2)ccc1Nc1ncc(Cl)c(-c2c[nH]c3ccccc23)n1 (2.5 µM)
0: EGFR_L861Q | EGFR_T790M | EPHA2 | ERBB3 | [1] | ERN1 | FGFR1 | FGFR3 | FGR | FLT3 | FYN | GSK3A | HER2 | INSRR | IRAK3 | JAK1 | LCK | LIMK1 | LIMK2

COC(=O)c1ccc2c(C(=Nc3ccc(N(C)C(=O)CN4CCN(C)CC4)cc3)c3ccccc3)c(O)[nH]c2c1 [Nintedanib] (2.5 µM)
0: EGFR_L861Q | EGFR_T790M | EPHA2 | ERBB3 | [1] | ERN1 | FGFR1 | FGFR2 | FGFR3 | FGR | FLT3 | FYN | GSK3A | HER2 | INSRR | IRAK3 | JAK1 | LCK | LIMK1 | LIMK2

CCCCNc1ncc(-c2ccc(CN3CCOCC3)cn2)c(NC2CCC(O)CC2)n1 (stereo unspecified) (10 µM)
0: EGFR_L861Q | EGFR_T790M | EPHA2 | ERBB3 | [1] | ERN1 | FGFR1 | FGFR2 | FGFR3 | FGR | FYN | GSK3A | HER2 | INSRR | IRAK3 | JAK1 | LCK | LIMK1 | LIMK2

CCn1c(=O)c2cc(C(N)=O)c(N)nc2n(C2CC2)c1=O (10 µM)
0: EGFR_L861Q | EGFR_T790M | EPHA2 | ERBB3 | [1] | ERN1 | FGFR1 | FGFR2 | FGFR3 | FGR | FLT3 | FYN | GSK3A | HER2 | INSRR | IRAK3 | JAK1 | LCK | LIMK1 | LIMK2

CC(C)(C)c1cc(NC(=O)Nc2ccc(-c3cn4c(n3)sc3cc(OCCN5CCOCC5)ccc34)cc2)no1 [Quizartinib] (10 µM)
0: EGFR_L861Q | EGFR_T790M | EPHA2 | ERBB3 | [1] | ERN1 | FGFR3 | FGR | GSK3A | HER2 | INSRR | IRAK3 | JAK1 | LCK
2: LIMK1 | LIMK2
4: FGFR1
3: FGFR2 | FYN

CC(C)(C)n1nc(Cc2cccc3ccccc23)c2c(N)ncnc21 (10 µM)
0: EGFR_L861Q | EGFR_T790M | EPHA2 | ERBB3 | [1] | ERN1 | FGFR1 | FGFR2 | FGFR3 | FGR | FLT3 | FYN | GSK3A | HER2 | INSRR | IRAK3 | JAK1 | LIMK1 | LIMK2

Two compounds picked at random from the list so far:
COC(=O)c1ccc2c(C(=Nc3ccc(N(C)C(=O)CN4CCN(C)CC4)cc3)c3ccccc3)c(O)[nH]c2c1 [Nintedanib] (2.5 µM)
0: EGFR_L861Q | EGFR_T790M | EPHA2 | ERBB3 | [1] | ERN1 | FGFR1 | FGFR2 | FGFR3 | FGR | FLT3 | FYN | GSK3A | HER2 | INSRR | IRAK3 | JAK1 | LCK | LIMK1 | LIMK2

CCn1c(=O)c2cc(C(N)=O)c(N)nc2n(C2CC2)c1=O (10 µM)
0: EGFR_L861Q | EGFR_T790M | EPHA2 | ERBB3 | [1] | ERN1 | FGFR1 | FGFR2 | FGFR3 | FGR | FLT3 | FYN | GSK3A | HER2 | INSRR | IRAK3 | JAK1 | LCK | LIMK1 | LIMK2

— the supplement of paper PMC12823440, “Inhibitors supercharge kinase turnover through native proteolytic circuits” (Nature, 2025)
